From PubChem BioAssay AID1259354 (Paczesny and Yang Labs, IUPUI and University of Michigan, 2018)
Hit rate of the full screen: of about 78,000 compounds, about 1,800 (2.3%) were called active. The shares of active, inactive and inconclusive entries below differ from those in the screen. Cut-off read from the data, not from the text of the source: active = inhibition above about 30%; inconclusive = mostly about 10% to 28%; inactive = weaker than that.

By UniProt entry, the sequences of proteins in these tests, tags left out. Where a name states a change or a piece, a line headed by the entry shows the natural chain unless it says otherwise.
UniProt Q01638: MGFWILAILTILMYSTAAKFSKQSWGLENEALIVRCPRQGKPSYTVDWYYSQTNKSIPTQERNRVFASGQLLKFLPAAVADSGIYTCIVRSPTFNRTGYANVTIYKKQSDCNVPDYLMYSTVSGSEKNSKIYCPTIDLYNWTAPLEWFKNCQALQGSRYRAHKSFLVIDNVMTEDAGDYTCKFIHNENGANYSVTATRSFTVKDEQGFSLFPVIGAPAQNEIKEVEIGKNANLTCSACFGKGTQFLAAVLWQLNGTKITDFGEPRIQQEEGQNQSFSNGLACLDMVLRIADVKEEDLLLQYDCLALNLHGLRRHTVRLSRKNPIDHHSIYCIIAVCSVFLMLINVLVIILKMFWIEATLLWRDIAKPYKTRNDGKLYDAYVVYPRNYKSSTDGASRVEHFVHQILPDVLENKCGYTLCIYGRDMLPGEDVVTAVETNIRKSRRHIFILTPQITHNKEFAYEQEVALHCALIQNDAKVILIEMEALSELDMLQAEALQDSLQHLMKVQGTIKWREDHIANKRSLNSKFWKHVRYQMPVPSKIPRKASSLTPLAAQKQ

These compounds were tested against Interleukin-1 receptor-like 1 (Homo sapiens) (UniProt Q01638) (assay: blocks human ST2 binding to IL-33, primary screen, biochemical, AlphaLISA (AID 1259354)). Details: AlphaLISA ST2-Fc/biotin-IL-33 interaction, 1 h; at 17 µM, hits give high values.
`CCCCOc1ccc2c3c(c(=O)oc2c1)CCCC3` was tested, and the inhibition was “inactive”.
With `Oc1cc(O)cc(/C=C/c2ccc(O)c(O)c2)c1` the inhibition was active: 33%.
For `CS(=O)(=O)c1ccc(CN2C[C@H](O)C[C@H]2c2nc(-c3ccc(OC(F)(F)F)cc3)no2)cc1`, the inhibition was active: 32%.
For `CCOc1ccc(OCCCNC(C)(C)C)cc1`, the inhibition was inconclusive: 10%.
`O=C1C2C3C=CC(O3)C2C(=O)N1c1ccc2c(c1)OCO2` (stereo not drawn) was tested, and the inhibition was inconclusive: 19%.
With `CN(CC1(CO)CCCC1)C(=O)Cc1ccncc1` the inhibition was inconclusive: 16%.
In the case of `CCOc1ccc(NS(=O)(=O)c2ccc3c(c2)CCN3C(=O)C2CC2)cc1`, the inhibition is reported as inconclusive: 14%.
In the case of `CCc1[nH]c2ccc(CNC(=O)c3ccc4[nH]c(=O)[nH]c4c3)cc2c1C`, the inhibition is reported as “inactive”.
For `Cc1ccsc1CN(C)C(=O)c1cnc(C(C)C)nc1C`, the inhibition was “inactive”.
`CSC1=NC2(CCCCCC2)Cc2ccccc21` was tested, and the inhibition was inconclusive: 11%.
For `O=C1NC(=O)C(=Cc2cccn2-c2cccc([N+](=O)[O-])c2)C(=O)N1`, the inhibition was inconclusive: 20%.
For `O=C1c2cccnc2C(Nc2ccc(Cl)cc2)N1Cc1ccccc1` (stereo not drawn), the inhibition was inconclusive: 22%.
In the case of `Cc1ccc(CNc2cccc(C(=O)N(C)CCn3ccnc3C)c2)s1`, the inhibition is reported as “inactive”.
`CCOC(=O)c1ccc(Nc2nc(CC(C)=O)ns2)cc1` was tested, and the inhibition was “inactive”.
With `Cc1ccc(C(=O)OCCCCN=C2NS(=O)(=O)c3ccccc32)cc1` the inhibition was “inactive”.
With `Cc1ccsc1CN(Cc1c(C)n(C)n(-c2ccccc2)c1=O)CC(C)C` the inhibition was inconclusive: 18%.
For `COc1cccc(CN=c2c([N+](=O)[O-])nn(-c3ccccc3)n2O)c1`, the inhibition was “inactive”.
In the case of `O=C(NC1CCN(Cc2ccccc2)CC1)c1cccn1-c1nnc(N2CCCCC2)s1`, the inhibition is reported as “inactive”.
For `COc1cc([N+](=O)[O-])ccc1NC(=O)c1c(C)nn(-c2ccccc2)c1Cl`, the inhibition was “inactive”.
`CC1=C(C(=O)Nc2ccc(C)cc2C)C(c2ccccc2Cl)n2ncnc2N1` (stereo not drawn) was tested, and the inhibition was “inactive”.
In the case of `CCOC(=O)Nc1cccc(Nc2ccccc2)c1`, the inhibition is reported as inconclusive: 27%.
In the case of `O=C(Nc1ccccc1Cl)c1cc2ccccc2oc1=O`, the inhibition is reported as “inactive”.
For `CCCc1nc(C)cc(N2CC(c3cccnc3)C2)n1`, the inhibition was inconclusive: 13%.
In the case of `O=C(Cc1ccccc1[N+](=O)[O-])NCc1ccc(Cl)cc1`, the inhibition is reported as inconclusive: 12%.
In the case of `Oc1cccc(-c2cc(C3CCN(Cc4ccsc4)C3)ccn2)c1` (stereo not drawn), the inhibition is reported as inconclusive: 12%.
With `Cn1ccnc1C(=O)C1CCCN(C(=O)c2cc(COc3ccccc3)[nH]n2)C1` (stereo not drawn) the inhibition was inconclusive: 15%.
`COc1ccccc1NS(=O)(=O)c1cc(S(=O)(=O)Nc2ccccc2OC)c(C)cc1C` was tested, and the inhibition was “inactive”.
For `C/C=C(\C)C[C@H](C)C[C@H](C)[C@H]1OC(=O)C=C[C@H]1OC(=O)/C=C/C(C)=C/[C@@H](CO)CCO`, the inhibition was inconclusive: 17%.
